The nature of series [1]: DRUGMATRIX: Platelet-Derived Growth Factor (PDGF) radioligand binding (ligand: [125I] PDGF). The settings on record: nih3t3; Not Active = under 50% inhibition at 10 µM. The series is classed as cell-based.
The next series concerns the target Cytochrome P450 2D6 (Homo sapiens, UniProt P10635). Further: in other assays of this panel Not Active means under 50% inhibition at 10 µM.
The target in another series is Cytochrome P450 1A2 (Homo sapiens, UniProt P05177). The settings on record: bti-tn-5b1-4. Further: in other assays of this panel Not Active means under 50% inhibition at 10 µM.
A further series addresses Cytochrome P450 2C19 (Homo sapiens, UniProt P33261). The settings on record: bti-tn-5b1-4.
For another series, the target named is Cytochrome P450 2C9 (Homo sapiens, UniProt P11712). The settings on record: bti-tn-5b1-4. Further: in other assays of this panel Not Active means under 50% inhibition at 10 µM.
In the next series the target is Cytochrome P450 2E1 (Homo sapiens, UniProt P05181). The following applies: bti-tn-5b1-4. Further: in other assays of this panel Not Active means under 50% inhibition at 10 µM.
The target of a further series is Estrogen receptor (Homo sapiens, UniProt P03372). The following applies: sf9. Further: in other assays of this panel Not Active means under 50% inhibition at 10 µM.

Protein sequences, listed by entry. Tags and fused reporters are not part of them. Lines headed by an entry give the natural chain unless they say otherwise; changes in a name come on top.
UniProt P10635, whole entry: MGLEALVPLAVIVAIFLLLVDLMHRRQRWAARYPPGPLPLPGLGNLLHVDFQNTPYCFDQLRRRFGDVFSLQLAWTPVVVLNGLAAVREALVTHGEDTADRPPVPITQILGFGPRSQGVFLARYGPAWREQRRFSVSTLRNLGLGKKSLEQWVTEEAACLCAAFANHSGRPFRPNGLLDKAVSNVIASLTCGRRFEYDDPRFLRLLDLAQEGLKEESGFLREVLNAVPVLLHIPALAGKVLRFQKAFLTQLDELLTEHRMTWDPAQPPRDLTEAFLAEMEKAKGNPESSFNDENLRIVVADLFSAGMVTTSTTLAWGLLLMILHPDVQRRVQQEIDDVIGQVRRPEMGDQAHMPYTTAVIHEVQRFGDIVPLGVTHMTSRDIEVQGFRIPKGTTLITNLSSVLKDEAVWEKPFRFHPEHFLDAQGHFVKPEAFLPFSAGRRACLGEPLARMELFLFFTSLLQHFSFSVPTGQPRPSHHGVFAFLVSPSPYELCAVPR
UniProt P05177, whole entry: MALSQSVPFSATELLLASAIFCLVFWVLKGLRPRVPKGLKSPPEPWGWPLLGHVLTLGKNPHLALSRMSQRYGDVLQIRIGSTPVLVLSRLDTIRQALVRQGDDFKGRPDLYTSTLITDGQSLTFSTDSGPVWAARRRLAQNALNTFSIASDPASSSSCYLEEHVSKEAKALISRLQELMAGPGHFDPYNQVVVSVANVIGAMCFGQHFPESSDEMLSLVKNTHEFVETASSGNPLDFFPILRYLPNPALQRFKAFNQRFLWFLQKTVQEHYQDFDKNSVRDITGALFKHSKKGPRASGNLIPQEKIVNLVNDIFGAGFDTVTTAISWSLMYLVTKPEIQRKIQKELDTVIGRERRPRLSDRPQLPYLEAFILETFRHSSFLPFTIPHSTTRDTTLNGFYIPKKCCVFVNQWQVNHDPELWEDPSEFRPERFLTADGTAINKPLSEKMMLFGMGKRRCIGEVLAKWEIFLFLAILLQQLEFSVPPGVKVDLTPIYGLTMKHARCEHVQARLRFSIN
UniProt P33261, whole entry: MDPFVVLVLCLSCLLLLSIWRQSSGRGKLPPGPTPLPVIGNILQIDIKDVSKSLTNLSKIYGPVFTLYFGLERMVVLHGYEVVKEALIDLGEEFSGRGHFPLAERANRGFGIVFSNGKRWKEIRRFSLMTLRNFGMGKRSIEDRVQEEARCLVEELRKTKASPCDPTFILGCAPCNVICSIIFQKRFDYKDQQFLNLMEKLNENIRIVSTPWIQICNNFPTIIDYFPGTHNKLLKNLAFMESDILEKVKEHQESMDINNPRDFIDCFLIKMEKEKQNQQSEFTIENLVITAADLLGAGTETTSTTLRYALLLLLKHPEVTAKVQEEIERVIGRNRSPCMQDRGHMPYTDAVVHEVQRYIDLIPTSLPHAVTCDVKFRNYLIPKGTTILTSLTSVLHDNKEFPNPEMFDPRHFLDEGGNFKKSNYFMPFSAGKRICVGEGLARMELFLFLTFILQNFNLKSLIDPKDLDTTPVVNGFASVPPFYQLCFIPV
UniProt P11712, whole entry: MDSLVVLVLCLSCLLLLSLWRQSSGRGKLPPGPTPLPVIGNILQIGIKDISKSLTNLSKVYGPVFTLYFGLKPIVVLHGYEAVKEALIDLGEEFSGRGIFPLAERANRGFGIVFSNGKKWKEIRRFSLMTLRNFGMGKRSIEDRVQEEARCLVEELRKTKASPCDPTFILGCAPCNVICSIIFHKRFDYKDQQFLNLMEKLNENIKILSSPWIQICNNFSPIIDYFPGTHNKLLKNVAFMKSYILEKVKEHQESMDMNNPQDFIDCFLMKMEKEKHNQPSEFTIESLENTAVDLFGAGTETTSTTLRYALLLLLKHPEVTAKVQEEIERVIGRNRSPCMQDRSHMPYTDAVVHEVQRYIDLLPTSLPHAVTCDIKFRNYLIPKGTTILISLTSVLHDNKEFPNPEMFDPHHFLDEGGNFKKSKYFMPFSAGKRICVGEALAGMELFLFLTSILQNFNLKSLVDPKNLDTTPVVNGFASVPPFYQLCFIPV
UniProt P05181: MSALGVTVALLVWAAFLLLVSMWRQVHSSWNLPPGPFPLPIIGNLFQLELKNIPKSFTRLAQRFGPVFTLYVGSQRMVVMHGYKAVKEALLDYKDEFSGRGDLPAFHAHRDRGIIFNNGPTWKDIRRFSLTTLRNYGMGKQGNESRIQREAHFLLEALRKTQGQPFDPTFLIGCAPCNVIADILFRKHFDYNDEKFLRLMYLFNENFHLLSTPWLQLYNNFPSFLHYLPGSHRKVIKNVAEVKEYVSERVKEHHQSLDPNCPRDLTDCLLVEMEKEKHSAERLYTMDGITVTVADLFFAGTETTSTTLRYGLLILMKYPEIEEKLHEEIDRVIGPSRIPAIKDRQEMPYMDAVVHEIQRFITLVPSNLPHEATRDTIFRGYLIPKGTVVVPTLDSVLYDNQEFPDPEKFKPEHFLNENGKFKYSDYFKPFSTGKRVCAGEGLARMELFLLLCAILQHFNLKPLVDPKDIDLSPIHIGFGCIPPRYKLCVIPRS
UniProt P03372, whole entry: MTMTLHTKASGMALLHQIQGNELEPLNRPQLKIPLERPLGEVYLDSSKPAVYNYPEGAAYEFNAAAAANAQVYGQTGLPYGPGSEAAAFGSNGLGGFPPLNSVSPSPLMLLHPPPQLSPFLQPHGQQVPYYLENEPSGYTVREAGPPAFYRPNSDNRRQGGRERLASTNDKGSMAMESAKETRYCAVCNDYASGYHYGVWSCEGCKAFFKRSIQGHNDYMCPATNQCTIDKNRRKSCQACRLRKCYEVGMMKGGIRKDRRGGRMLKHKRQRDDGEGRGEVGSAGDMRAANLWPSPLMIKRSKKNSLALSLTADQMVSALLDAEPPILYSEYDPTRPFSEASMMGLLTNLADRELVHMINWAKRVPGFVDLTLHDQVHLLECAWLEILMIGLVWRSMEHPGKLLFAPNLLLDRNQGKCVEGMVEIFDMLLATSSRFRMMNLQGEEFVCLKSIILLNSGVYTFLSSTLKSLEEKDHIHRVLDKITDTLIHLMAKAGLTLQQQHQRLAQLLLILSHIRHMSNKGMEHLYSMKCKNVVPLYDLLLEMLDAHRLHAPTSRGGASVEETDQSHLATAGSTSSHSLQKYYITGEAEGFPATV

In the case of `CCC(C)C(C(=O)OCC[N+](C)(CC)CC)c1ccccc1.[Br-]` (configuration not stated) [VALETHAMATE BROMIDE], the IC50 result in series [1] is “Not Active”; at Cytochrome P450 2D6, 249 nM; at Cytochrome P450 1A2 it was “Not Active”; against Cytochrome P450 2C19, “Not Active”; at Cytochrome P450 2C9, “Not Active”; on Cytochrome P450 2E1, “Not Active”. Further, the Ki result (in series [1]; on Cytochrome P450 1A2; on Cytochrome P450 2C19; at Cytochrome P450 2C9; on Cytochrome P450 2E1) was “Not Active” throughout.
For `CC(C)(C)CC(C)(C)c1ccc(OCCOCC[N+](C)(C)Cc2ccccc2)cc1.[Cl-]` [BENZETHONIUM CHLORIDE], the IC50 entry against Estrogen receptor is given as “Not Active”.

(Values after ChEMBL document CHEMBL1909046, “DrugMatrix in vitro pharmacology data”.)
